From patent publication US20030191084A1 come the findings set out here.

The chains behind the UniProt entries cited, without tags or fusion partners. Where a name states a change or a piece, a line headed by the entry shows the natural chain unless it says otherwise. Residues count along the entry.
UniProt P02745: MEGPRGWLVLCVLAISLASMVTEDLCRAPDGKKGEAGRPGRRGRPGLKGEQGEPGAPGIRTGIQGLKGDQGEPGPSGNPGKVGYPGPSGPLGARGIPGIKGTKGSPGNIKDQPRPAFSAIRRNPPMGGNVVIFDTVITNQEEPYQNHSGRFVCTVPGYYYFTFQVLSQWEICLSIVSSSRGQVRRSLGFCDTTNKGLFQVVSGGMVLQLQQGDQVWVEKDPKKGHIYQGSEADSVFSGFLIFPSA
UniProt P02743, residues 20-223: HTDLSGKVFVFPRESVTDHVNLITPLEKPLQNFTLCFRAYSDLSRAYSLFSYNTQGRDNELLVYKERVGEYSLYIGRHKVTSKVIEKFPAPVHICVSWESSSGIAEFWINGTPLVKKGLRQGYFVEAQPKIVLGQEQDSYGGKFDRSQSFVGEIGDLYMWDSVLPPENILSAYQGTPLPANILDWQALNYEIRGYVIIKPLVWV

In this experiment the target is Complement System Protein C1q (UniProt P02745). Kind of experiment: nitrocellulose filter assay; protein competes with labelled 2'-NH2 RNA ligand #50 for C1q.

These are yes or no findings as the source states them, for the method shown. Some entries that bind do so weakly or less than the wild type.

Consider “serum amyloid protein (SAP) (from UniProt P02743 20-223) (other; other documents disagree on this pair)”, for which the binding entry is “binds”.
